Measurements: the supplement of paper PMC10849652
Some of the results follow.

Sequences of proteins named here, by UniProt entry; tags and fusion partners are left off. A change or cut given only in a name is not applied to a line headed by its entry.
UniProt Q15843, whole entry, looked up: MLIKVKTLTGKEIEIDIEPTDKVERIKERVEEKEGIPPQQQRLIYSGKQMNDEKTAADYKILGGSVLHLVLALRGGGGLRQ
UniProt O76041: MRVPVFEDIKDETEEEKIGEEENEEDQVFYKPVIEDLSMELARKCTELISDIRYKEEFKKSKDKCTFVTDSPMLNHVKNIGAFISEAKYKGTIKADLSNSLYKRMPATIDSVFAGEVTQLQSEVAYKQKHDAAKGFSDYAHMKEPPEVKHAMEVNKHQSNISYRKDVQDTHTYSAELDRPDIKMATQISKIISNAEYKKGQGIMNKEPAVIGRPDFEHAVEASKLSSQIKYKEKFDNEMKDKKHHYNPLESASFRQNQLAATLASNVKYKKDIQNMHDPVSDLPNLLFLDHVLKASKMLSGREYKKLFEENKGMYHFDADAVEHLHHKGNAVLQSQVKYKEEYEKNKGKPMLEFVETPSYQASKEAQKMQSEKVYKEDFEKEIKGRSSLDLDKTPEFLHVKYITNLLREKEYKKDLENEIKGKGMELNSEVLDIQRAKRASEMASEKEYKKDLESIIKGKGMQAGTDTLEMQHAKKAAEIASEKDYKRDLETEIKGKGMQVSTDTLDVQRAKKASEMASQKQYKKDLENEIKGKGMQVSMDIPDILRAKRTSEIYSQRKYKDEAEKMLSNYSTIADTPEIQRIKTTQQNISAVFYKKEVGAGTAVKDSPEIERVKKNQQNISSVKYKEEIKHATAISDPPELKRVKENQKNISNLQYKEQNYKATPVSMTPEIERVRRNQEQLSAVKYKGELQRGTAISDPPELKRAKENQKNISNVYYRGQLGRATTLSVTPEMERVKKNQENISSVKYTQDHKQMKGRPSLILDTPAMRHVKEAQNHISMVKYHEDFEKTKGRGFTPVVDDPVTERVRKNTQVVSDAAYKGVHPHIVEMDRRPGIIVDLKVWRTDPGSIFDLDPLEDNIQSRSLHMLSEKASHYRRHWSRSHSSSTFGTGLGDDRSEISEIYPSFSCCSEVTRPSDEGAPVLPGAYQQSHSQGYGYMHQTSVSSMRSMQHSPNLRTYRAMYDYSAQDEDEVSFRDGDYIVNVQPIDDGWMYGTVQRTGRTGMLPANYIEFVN
UniProt P56181: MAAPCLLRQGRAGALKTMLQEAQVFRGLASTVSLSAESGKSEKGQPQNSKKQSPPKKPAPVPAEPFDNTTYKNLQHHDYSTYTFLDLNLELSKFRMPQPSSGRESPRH
UniProt Q9NPE2: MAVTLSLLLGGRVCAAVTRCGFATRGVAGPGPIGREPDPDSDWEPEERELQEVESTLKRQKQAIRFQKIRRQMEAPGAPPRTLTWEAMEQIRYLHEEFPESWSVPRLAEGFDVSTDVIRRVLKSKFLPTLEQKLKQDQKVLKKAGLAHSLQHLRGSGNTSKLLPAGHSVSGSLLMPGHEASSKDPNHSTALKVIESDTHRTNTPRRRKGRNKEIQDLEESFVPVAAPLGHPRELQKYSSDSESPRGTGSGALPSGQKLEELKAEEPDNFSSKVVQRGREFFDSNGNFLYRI
UniProt P19404, whole entry, looked up: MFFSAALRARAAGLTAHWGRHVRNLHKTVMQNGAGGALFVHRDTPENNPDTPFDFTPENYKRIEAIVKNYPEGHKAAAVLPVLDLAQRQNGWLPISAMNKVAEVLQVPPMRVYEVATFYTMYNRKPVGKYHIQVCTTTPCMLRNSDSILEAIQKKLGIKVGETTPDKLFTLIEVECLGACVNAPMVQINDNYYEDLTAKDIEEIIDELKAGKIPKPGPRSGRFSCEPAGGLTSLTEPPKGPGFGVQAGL
UniProt P17568, whole entry, looked up: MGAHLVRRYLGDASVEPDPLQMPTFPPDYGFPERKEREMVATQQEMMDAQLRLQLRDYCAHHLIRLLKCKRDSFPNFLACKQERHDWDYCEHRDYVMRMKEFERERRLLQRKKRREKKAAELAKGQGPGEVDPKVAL
UniProt Q00653: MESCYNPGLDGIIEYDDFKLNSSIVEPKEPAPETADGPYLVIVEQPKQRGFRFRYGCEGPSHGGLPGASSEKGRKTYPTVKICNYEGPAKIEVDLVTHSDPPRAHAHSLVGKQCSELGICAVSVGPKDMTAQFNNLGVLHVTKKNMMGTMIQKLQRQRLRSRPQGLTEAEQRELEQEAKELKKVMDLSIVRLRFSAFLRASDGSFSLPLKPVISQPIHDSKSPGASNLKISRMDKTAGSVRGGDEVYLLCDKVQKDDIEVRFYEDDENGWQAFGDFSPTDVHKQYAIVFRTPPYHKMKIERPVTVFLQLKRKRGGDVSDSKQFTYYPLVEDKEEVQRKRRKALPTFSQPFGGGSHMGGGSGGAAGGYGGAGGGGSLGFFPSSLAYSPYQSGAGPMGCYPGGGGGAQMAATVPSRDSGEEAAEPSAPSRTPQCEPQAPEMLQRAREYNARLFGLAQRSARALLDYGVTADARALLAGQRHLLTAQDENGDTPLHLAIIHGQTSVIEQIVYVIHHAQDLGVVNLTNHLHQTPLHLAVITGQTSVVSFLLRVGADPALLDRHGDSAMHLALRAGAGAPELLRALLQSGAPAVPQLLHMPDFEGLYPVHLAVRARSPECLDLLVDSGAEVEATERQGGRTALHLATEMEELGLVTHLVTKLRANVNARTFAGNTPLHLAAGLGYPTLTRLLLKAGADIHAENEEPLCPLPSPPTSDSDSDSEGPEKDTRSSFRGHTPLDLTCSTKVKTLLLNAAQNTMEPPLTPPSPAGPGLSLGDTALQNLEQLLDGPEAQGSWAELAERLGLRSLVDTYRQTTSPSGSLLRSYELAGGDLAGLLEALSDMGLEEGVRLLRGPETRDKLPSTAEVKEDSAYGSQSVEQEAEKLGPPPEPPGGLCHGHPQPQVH
UniProt O95644: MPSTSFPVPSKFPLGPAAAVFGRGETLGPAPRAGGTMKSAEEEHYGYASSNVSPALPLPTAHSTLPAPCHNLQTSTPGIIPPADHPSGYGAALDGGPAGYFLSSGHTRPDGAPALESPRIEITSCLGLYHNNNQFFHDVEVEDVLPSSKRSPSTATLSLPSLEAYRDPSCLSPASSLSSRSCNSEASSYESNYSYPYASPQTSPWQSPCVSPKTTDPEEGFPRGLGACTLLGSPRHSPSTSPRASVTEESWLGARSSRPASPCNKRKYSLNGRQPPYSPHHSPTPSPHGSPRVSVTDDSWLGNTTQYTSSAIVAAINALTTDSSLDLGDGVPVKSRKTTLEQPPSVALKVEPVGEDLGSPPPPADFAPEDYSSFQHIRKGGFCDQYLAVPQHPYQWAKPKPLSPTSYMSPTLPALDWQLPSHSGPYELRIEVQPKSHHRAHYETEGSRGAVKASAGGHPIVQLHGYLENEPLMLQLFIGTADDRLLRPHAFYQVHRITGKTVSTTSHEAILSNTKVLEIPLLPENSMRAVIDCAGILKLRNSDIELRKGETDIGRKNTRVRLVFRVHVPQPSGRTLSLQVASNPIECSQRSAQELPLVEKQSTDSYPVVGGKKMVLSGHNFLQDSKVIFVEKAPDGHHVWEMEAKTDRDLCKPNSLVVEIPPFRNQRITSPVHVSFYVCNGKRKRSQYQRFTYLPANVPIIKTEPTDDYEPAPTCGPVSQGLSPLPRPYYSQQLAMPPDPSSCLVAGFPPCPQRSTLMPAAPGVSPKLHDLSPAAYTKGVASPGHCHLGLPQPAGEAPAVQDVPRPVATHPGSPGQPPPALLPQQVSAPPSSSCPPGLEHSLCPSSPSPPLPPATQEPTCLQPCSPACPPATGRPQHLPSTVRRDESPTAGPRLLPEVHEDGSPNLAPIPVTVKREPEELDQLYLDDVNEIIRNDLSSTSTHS
UniProt Q9UN36: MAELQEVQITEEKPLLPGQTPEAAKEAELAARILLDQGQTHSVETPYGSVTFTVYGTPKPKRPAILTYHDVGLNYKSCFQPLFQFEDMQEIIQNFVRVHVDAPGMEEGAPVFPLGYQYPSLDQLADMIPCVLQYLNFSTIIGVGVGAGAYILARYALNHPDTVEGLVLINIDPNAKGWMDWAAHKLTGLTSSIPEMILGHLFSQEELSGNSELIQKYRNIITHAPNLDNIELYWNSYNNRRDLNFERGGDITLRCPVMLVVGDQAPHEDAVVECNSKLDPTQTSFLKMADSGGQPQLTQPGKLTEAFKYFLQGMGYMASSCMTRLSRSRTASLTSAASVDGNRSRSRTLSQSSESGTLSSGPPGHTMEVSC
UniProt Q9NVX2: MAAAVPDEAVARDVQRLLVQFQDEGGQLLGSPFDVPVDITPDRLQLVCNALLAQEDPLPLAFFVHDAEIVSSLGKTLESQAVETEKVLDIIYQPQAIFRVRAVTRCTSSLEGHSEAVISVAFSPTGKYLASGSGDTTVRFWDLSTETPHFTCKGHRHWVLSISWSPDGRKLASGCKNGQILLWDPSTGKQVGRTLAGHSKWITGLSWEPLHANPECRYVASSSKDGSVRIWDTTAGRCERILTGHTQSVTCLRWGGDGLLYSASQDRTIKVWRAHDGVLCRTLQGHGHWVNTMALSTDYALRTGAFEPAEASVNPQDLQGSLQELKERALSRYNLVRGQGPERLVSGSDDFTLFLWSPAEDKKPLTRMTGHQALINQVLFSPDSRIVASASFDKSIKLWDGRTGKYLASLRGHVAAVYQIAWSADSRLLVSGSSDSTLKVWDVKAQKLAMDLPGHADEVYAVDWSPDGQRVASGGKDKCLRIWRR
UniProt Q9NYR9: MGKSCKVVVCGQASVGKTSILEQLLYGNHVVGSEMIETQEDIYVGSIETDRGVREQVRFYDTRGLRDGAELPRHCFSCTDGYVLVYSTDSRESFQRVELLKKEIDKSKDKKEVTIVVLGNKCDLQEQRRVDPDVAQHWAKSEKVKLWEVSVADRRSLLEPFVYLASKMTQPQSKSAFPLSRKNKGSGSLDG
UniProt Q12857, whole entry, looked up: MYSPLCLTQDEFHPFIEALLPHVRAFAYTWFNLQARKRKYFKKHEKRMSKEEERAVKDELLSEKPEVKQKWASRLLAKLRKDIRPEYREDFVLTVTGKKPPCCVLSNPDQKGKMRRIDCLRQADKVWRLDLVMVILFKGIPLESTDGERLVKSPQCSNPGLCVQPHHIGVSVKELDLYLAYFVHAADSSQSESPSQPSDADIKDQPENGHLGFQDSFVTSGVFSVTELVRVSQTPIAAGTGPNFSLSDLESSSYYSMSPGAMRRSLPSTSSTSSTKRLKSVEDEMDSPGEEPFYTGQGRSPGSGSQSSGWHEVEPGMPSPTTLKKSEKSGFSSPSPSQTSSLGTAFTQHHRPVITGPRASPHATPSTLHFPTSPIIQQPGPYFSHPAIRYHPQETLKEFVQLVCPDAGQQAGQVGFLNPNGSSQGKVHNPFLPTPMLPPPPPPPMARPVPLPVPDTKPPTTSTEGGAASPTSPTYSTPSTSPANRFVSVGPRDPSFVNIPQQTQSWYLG
UniProt Q8NBF2: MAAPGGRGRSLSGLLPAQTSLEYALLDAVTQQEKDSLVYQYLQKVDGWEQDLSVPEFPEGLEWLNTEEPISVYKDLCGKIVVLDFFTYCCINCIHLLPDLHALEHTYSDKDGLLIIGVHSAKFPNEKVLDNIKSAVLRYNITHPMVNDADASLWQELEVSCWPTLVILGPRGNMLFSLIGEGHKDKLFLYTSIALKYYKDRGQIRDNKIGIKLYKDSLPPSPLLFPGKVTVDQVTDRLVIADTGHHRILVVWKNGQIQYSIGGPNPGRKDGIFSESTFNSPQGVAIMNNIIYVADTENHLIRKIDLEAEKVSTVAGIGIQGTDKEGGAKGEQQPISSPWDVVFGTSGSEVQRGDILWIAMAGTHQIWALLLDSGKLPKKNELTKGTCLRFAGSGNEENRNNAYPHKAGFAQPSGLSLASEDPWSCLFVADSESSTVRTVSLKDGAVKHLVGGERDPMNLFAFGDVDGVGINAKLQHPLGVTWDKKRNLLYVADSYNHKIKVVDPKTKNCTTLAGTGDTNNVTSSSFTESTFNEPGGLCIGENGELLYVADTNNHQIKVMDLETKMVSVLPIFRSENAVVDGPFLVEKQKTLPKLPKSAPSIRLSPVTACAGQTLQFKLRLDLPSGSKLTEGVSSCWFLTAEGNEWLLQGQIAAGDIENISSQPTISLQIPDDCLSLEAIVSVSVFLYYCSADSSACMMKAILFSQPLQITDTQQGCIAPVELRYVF
UniProt P18615, whole entry, looked up: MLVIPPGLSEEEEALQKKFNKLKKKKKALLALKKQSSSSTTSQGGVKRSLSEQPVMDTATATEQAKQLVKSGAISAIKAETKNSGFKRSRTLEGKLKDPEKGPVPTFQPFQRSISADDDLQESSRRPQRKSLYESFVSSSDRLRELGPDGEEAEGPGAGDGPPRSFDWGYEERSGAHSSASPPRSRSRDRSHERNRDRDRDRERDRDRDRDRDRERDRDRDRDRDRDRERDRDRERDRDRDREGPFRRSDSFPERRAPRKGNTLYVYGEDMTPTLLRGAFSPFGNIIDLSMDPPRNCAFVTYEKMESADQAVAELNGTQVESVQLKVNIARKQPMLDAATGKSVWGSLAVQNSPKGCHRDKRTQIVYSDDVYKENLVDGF
UniProt O95168, whole entry, looked up: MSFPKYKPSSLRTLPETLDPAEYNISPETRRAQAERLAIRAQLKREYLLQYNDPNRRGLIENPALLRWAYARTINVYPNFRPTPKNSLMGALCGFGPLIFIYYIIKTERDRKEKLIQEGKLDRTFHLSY

What was measured:
Experiment in all cases: log2 fold change, soluble protein after heating vs DMSO (PISA); higher = thermal stabilisation; K562 lysate, 10 uM; active = over 0.2 and 3.5 SD of the protein, either way, in both replicates (recomputed)
lapatinib = compound: CS(=O)(=O)CCNCc1ccc(-c2ccc3ncnc(Nc4ccc(OCc5cccc(F)c5)c(Cl)c4)c3c2)o1 [lapatinib]
Method in brief: (§1)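 Pellets of K562 cells were dounce-homogenised in PBS pH 7.4 with 1 mM MgCl2, and the crude extract was held at 1 mg/mL protein for a 30 min treatment with 10 μM compound. Aliquots were heated for 3 min over 48°C-58°C and pooled before NP-40 was added to 0.5% at 4°C. The supernatant from 21,000xg for 90 min was quantified by TMTpro 16plex LC-MS/MS with channel sums equalised. Values are reported from duplicates as log-two fold change in thermal stability relative to solvent controls.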

pictilisib = compound: CS(=O)(=O)N1CCN(Cc2cc3nc(-c4cccc5[nH]ncc45)nc(N4CCOCC4)c3s2)CC1 [pictilisib]
Method in brief: as §1

crizotinib = compound: C[C@@H](Oc1cc(-c2cnn(C3CCNCC3)c2)cnc1N)c1c(Cl)ccc(F)c1Cl [crizotinib]
Method in brief: as §1

[1] = compound: C[C@H](C1=CC=C(C=C1)C(=O)NC2=C3C=CNC3=NC=C2)N
Method in brief: as §1

duvelisib = compound: C[C@H](Nc1ncnc2nc[nH]c12)c1cc2cccc(Cl)c2c(=O)n1-c1ccccc1 [duvelisib]
Method in brief: as §1

gandotinib = compound: Cc1cc(Nc2cc(CN3CCOCC3)c3nc(C)c(Cc4ccc(Cl)cc4F)n3n2)n[nH]1 [gandotinib]
Method in brief: as §1

tozasertib = compound: Cc1cc(Nc2cc(N3CCN(C)CC3)nc(Sc3ccc(NC(=O)C4CC4)cc3)n2)n[nH]1 [tozasertib]
Method in brief: as §1

doramapimod = compound: Cc1ccc(-n2nc(C(C)(C)C)cc2NC(=O)Nc2ccc(OCCN3CCOCC3)c3ccccc23)cc1 [doramapimod]
Method in brief: as §1

bafetinib = compound: Cc1ccc(NC(=O)c2ccc(CN3CC[C@H](N(C)C)C3)c(C(F)(F)F)c2)cc1Nc1nccc(-c2cncnc2)n1 [bafetinib]
Method in brief: as §1

[2] = compound: Cc1cccc(CC(=O)N2CCc3c2ccc(-c2cn(C)c4ncnc(N)c24)c3F)n1
Method in brief: as §1

Measured: log2 fold change

NEDD8 (UniProt Q15843)
inactive: lapatinib 0.04 | pictilisib 0.028 | crizotinib 0.041 | [1] 0.19 | duvelisib 0.019 | gandotinib -0.062 | tozasertib 0.06 | doramapimod -0.049 | bafetinib -0.117 | [2] -0.107

NEBL (UniProt O76041)
inactive: lapatinib 0.054 | pictilisib -0.046 | crizotinib 0.09 | [1] 0.106 | duvelisib 0.023 | gandotinib -0.204 | tozasertib 0.01 | doramapimod -0.006 | bafetinib -0.037 | [2] -0.076

NDUFV3 isoform 2 (UniProt P56181)
inactive: lapatinib 0.006 | pictilisib 0.012 | crizotinib 0.039 | [1] -0.062 | duvelisib -0.014 | gandotinib 0.054 | tozasertib -0.022 | doramapimod -0.046 | bafetinib 0.016 | [2] 0.03

NGRN (UniProt Q9NPE2)
inactive: lapatinib -0.024 | pictilisib -0.029 | crizotinib 0.019 | [1] -0.045 | duvelisib 0.111 | gandotinib -0.002 | tozasertib 0.044 | doramapimod -0.03 | bafetinib 0.018 | [2] -0.042

NDUFV2 (UniProt P19404)
inactive: lapatinib 0.013 | pictilisib -0.036 | crizotinib 0.01 | [1] 0.029 | duvelisib -0.007 | gandotinib -0.013 | tozasertib -0.004 | doramapimod -0.017 | bafetinib 0.001 | [2] 0.011

NEK7 (UniProt Q8TDX7)
inactive: lapatinib -0.035 | pictilisib -0.018 | crizotinib -0.045 | [1] -0.062 | duvelisib -0.026 | gandotinib -0.031 | tozasertib -0.022 | doramapimod 0.016 | bafetinib -0.026 | [2] 0.15

NF1 (UniProt P21359)
inactive: lapatinib -0.034 | pictilisib -0.022 | crizotinib -0.075 | [1] -0.031 | duvelisib -0.001 | gandotinib -0.108 | tozasertib -0.014 | doramapimod -0.009 | bafetinib -0.041 | [2] 0.049

NDUFA6 (UniProt P56556)
inactive: lapatinib -0.067 | pictilisib 0.002 | crizotinib -0.045 | [1] -0.01 | duvelisib 0.013 | gandotinib 0.039 | tozasertib 0.084 | doramapimod 0.112 | bafetinib 0.017 | [2] 0.055

NES (UniProt P48681)
inactive: lapatinib -0.023 | pictilisib -0.023 | crizotinib -0.013 | [1] 0.001 | duvelisib 0.024 | gandotinib 0.015 | tozasertib 0.084 | doramapimod -0.007 | bafetinib -0.068 | [2] 0.013

NECTIN2 (UniProt Q92692)
inactive: lapatinib -0.05 | pictilisib -0.058 | crizotinib 0.019 | [1] -0.066 | duvelisib 0.041 | gandotinib 0.029 | tozasertib -0.015 | doramapimod -0.027 | bafetinib 0.038 | [2] -0.044

NDUFB7 (UniProt P17568)
inactive: lapatinib 0.034 | pictilisib 0.074 | crizotinib -0.071 | [1] 0.241 | duvelisib -0.055 | gandotinib -0.038 | tozasertib 0.125 | doramapimod -0.015 | bafetinib 0.046 | [2] -0.078

NEU1 (UniProt Q99519)
inactive: lapatinib -0.089 | pictilisib -0.033 | crizotinib 0.042 | [1] -0.033 | duvelisib 0.012 | gandotinib 0.001 | tozasertib 0.024 | doramapimod -0.006 | bafetinib 0.035 | [2] 0.068

NFKB2 (UniProt Q00653)
inactive: lapatinib 0.03 | pictilisib -0.001 | crizotinib -0.053 | [1] -0.038 | duvelisib -0.036 | gandotinib 0.013 | tozasertib 0.026 | doramapimod 0.031 | bafetinib -0.017 | [2] 0.027

NFAT5 isoform 5 (UniProt O94916)
inactive: lapatinib 0.033 | pictilisib -0.002 | crizotinib 0.053 | [1] -0.053 | duvelisib -0.041 | gandotinib 0.045 | tozasertib -0.039 | doramapimod 0.007 | bafetinib -0.041 | [2] 0.008

NFATC1 (UniProt O95644)
inactive: lapatinib -0.003 | pictilisib -0.088 | crizotinib -0.111 | [1] -0.136 | duvelisib 0.007 | gandotinib 0.132 | tozasertib -0.002 | doramapimod 0.017 | bafetinib -0.043 | [2] 0.179

NEBL isoform 2 (UniProt O76041)
inactive: lapatinib 0.003 | pictilisib 0.044 | crizotinib 0.059 | [1] -0.135 | duvelisib -0.046 | gandotinib 0.094 | tozasertib -0.018 | doramapimod -0.018 | bafetinib 0.105 | [2] 0.073

NDRG2 (UniProt Q9UN36)
inactive: lapatinib -0.014 | pictilisib -0.001 | crizotinib 0.021 | [1] 0.035 | duvelisib 0.015 | gandotinib -0.01 | tozasertib -0.031 | doramapimod -0.05 | bafetinib 0.046 | [2] -0.028

NDUFC2 (UniProt O95298)
inactive: lapatinib 0.056 | pictilisib 0.1 | crizotinib 0.111 | [1] 0.041 | duvelisib 0.026 | gandotinib -0.055 | tozasertib 0.027 | doramapimod 0.01 | bafetinib -0.072 | [2] 0.007

NFE2 (UniProt Q16621)
inactive: lapatinib 0.031 | pictilisib 0.009 | crizotinib -0.106 | [1] 0.002 | duvelisib -0.05 | gandotinib 0.135 | tozasertib 0.024 | doramapimod 0.002 | bafetinib -0.077 | [2] 0.013

NDE1 isoform 1 (UniProt Q9NXR1)
inactive: lapatinib 0.009 | pictilisib -0.034 | crizotinib 0.063 | [1] -0.052 | duvelisib 0.034 | gandotinib 0.086 | tozasertib -0.025 | doramapimod 0.018 | bafetinib -0.021 | [2] 0.048

NDUFA5 (UniProt Q16718)
inactive: lapatinib 0.085 | pictilisib 0.036 | crizotinib -0.01 | [1] 0.113 | duvelisib 0 | gandotinib -0.104 | tozasertib 0.065 | doramapimod -0.009 | bafetinib 0.028 | [2] -0.01

NLE1 (UniProt Q9NVX2)
inactive: lapatinib 0.028 | pictilisib -0.016 | crizotinib -0.001 | [1] 0.002 | duvelisib 0.04 | gandotinib 0.006 | tozasertib -0.016 | doramapimod 0.034 | bafetinib -0.001 | [2] -0.042

NKIRAS2 (UniProt Q9NYR9)
inactive: lapatinib 0.042 | pictilisib 0.027 | crizotinib -0.068 | [1] 0.017 | duvelisib -0.019 | gandotinib -0.157 | tozasertib -0.025 | doramapimod 0.034 | bafetinib -0.082 | [2] 0.085

NFIA isoform 4 (UniProt Q12857)
inactive: lapatinib 0.052 | pictilisib 0.009 | crizotinib 0.043 | [1] -0.113 | duvelisib 0.027 | gandotinib 0.225 | doramapimod 0.017 | bafetinib -0.082 | [2] 0.111

NHLRC2 (UniProt Q8NBF2)
inactive: lapatinib -0.025 | pictilisib -0.021 | crizotinib -0.025 | [1] -0.071 | duvelisib -0.009 | gandotinib 0.005 | tozasertib -0.005 | doramapimod 0.011 | bafetinib -0.031 | [2] 0.098

NFKBIE (UniProt O00221)
inactive: lapatinib 0.03 | pictilisib 0.002 | crizotinib -0.027 | [1] 0.066 | duvelisib 0.03 | gandotinib -0.02 | tozasertib 0.07 | doramapimod 0.031 | bafetinib 0.012 | [2] 0.096

NDUFB6 (UniProt O95139)
inactive: lapatinib -0.014 | pictilisib -0.057 | crizotinib -0.047 | [1] -0.13 | duvelisib -0.026 | gandotinib 0.086 | tozasertib -0.035 | doramapimod -0.029 | bafetinib 0.048 | [2] 0.059

NELFE (UniProt P18615)
inactive: lapatinib 0 | pictilisib 0.018 | crizotinib -0.014 | [1] -0.036 | duvelisib -0.003 | gandotinib 0.002 | tozasertib 0.01 | doramapimod 0.001 | bafetinib -0.003 | [2] 0.058

NFKB1 isoform 2 (UniProt P19838)
inactive: lapatinib -0.008 | pictilisib 0.007 | crizotinib -0.033 | [1] -0.019 | duvelisib -0.008 | gandotinib -0.018 | tozasertib -0.006 | bafetinib -0.138 | [2] 0.028

NDUFB4 (UniProt O95168)
inactive: lapatinib -0.054 | pictilisib 0.192 | crizotinib 0.047 | [1] 0.202 | duvelisib -0.046 | gandotinib -0.168 | tozasertib -0.063 | doramapimod -0.072 | bafetinib 0.157 | [2] -0.17
